The subject of the test is Aβ42 production. The test is described as follows: Sandwich ELISA measurement of Aβ42 levels in supernatant of treated N2a-APP695 cells. The format is cell-based. The settings on record: Mus musculus, 18 h, read-out: EC50 (µM) at inducing Aβ42 production. Here is the method:
Mouse neuroblastoma cells (N2a cells) or N2a-APP695 cells (N2a cell line stably transfected with APP695, an amyloid precursor protein) were cultured in an essential medium composed of Dulbecco's minimal essential medium (DMEM) and of OptiMEM® (1:1, v/v) (Gibco®) containing 0.2 mg/mL Geniticin (Geneticin® Selective Antibiotic, Gibco®) and 5 % fetal bovine serum (FBS, Gibco®, EU approved origin) in a humidified, 5% CO2 incubator at 37°C. Routinely, cells were split without use of Trypsin every 4/5 days. They were first rinsed with PBS (Gibco) and detached from the plate bottom using 4 mL Versene (Gibco) at room temperature for 3-4 min. […]
The N2a-APP695 cells were seeded at 10.000 cells/well in a 96 well plate with modified media (0.5% FBS) and incubated overnight. Cells were treated with fresh media comprising different compounds according to the invention (equal quantity of DMSO sold by Sigma®). […]
Then, Aβ38, Aβ40 and Aβ42 levels were measured in a sandwich ELISA (Enzyme-Linked ImmunoSorbent Assay) using a combination of monoclonal antibody 6E10 (mAb 6E10) (sold by Covance® under the reference SIG-39320) and biotinylated polyclonal Aβ38, Aβ40 or Aβ42 antibodies (provided by Dr. P.D. Mehta, IBR, Staten Island, USA). […]
The optical density was finally measured at 490 nm in a microELISA reader (sold by BioTek Instrument, reference E1 800, Gen 5 software). […]
In general terms: ELISA stands for enzyme-linked immunosorbent assay.

For the compound `CC[C@H](CO)Nc1nc(NCc2ccccc2)c2ncn(C(C)C)c2n1` [Compound 2, reference compound], the EC50 turned out to be 100 µM.

As a reminder, the EC50 is the midpoint of the concentration-response curve.

Source of the values: EP2664619B1, “Purine derivatives as tools for screening anti-Alzheimer compounds” (Manros Therapeutics, priority 2012, dated 2013).
